We go through 69 sequences from PubChem BioAssay AID1508600 (Functional Genomics Laboratory (NCATS/FGL), 2020).

In all, about 53,000 sequences went through this assay and about 3,700 (7%) were called active.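 How the source made its calls: active means gene knockdowns whose robust z-score for IL-1 alpha signal is at least 2 or at most -2, so actives lie on both sides; inactive means the rest.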 The list shows a part of the results.

A short description of the assay: Components of the Cytosolic LPS Sensing Pathway: Gene Identification via Genome-wide siRNA Screen.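 Further: robust z of the log signal after scaling to non-targeting control siRNA wells of the plate.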 The settings on record: RAW264.7 macrophages, IL-1a HTRF, actives lie on both sides, screened at 100 nM (by protocol), cells primed 5 h with Pam3CSK4 first. In outline:
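Read-out: IL-1a HTRF on supernatant, divided by plate negative-control median ×100, log-transformed and converted to robust z-score. Cells were RAW264.7 given 100 nM siRNA, Pam3CSK4-primed 5 hours, then LipidA-transfected 24 hour.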
On the technique in general: In TR-FRET formats the signal depends on donor and acceptor labels being close together.
Consider GGUGAUCUUAGCAAUGUUUTT against Pdk2, for which the z-score was inactive: 0.936. With GGAGUAGACAGAGGAUGGCTT against Ctsll3, the z-score was inactive: -0.133. Regarding GGAAGUGGUCAUAUUCACGTT against Jag2, the z-score is inactive: -0.714. The same measure for GGCCAUGGUUCUAUAGGACTT against Zbtb37: inactive: 0.764; for GGAAAACUCAUGAUCACUUTT against Robo1: inactive: 0.308. In the case of GCCUCUGGACUACUAUAGATT against Gale it was inactive: -1.01; in that of GGAGAAUCAAAGAAGAAGATT against Xpc, inactive: -0.661; in that of GGUGGGAGUCAUUUUCCGUTT against P2rx1, inactive: -0.58. Regarding GGCUUUGUAUAUCUUAUCGTT against Fryl, the z-score is inactive: -0.057. The same measure for GGGUGAAAUUCUGUUGAAGTT against Irx3os: inactive: 0.546; for GCCACGAUUUGCCUUAUUUTT against Litaf: inactive: -0.426.

Regarding GGACAGACGAAUUGAAAACTT against Stambpl1, the z-score is inactive: -0.658.

Turning to GCUCUACAUGUAGACCUGCTT against Morn2, the z-score was inactive: 1.12. On to GCCAUUCACUUAAUUCAGUTT against H2ac8, for which the z-score is inactive: -1.32. The same measure for GCUGAAAAUGACCCGGAAGTT against Cftr: inactive: 1.01; for CCUUAGCAAUGGGAUUGAUTT against Rasl12: inactive: 0.448; for GGGAGAAUUAAACCUAAAGTT against Hus1: inactive: 1.79. With GGGAAAACCGAAUAAAGAUTT against Ren2, the z-score was inactive: -1.51. As to CGUAACUUUGUUGAACUACTT against Fbxo48, the z-score is inactive: 0.739.

Turning to GGGCUUUGGACAUCUCCUATT against Serpina3c, the z-score was inactive: -1.98. The same measure for GGACUUUCGUGAGAGAUUUTT against Fpr2: inactive: 1.16; for CCGUCUUCGAUGAGGCAAUTT against Rac2: inactive: 0.154. With GCCUGGAAUGCAGAAUCGATT against Vwa2, the z-score is inactive: -0.0276. As for CCAAGUCCAUAGUUGAACUTT against Bnc1, the z-score is inactive: 1.17. Turning to GGAGGAACCUACCUUUGACTT against Tbc1d17, the z-score is inactive: 0.0756. Regarding GGAGCAUUCAAAUUACAUCTT against Ccni, the z-score was active: 4.62. Take GCUAUGAGGCUUUGUUCUUTT against Ttc27: the z-score was inactive: 0.305.

In the case of GGAGACAGAUCCUCUCAAUTT against Map4k2, the z-score is inactive: 0.302. In the case of GCCUAUCAGAAGCUGUUAATT against Eif2ak2 it was active: 3.59. The same measure for GGAAGAAAAAGCCGGGAAGTT against Fbxo3: inactive: -0.0865. On to GCAGGUUCACGACACCAACTT against Sv2a, for which the z-score is inactive: -1.35. In the case of GGACGGUUACAAUGUGUACTT against Fgf21 it was inactive: 0.505; in that of GCAAAACUUCGGAUAGUCATT against Gak, inactive: 0.382. With GCUGUAGAGAUCAAUAGAGTT against Abcd2, the z-score is inactive: -0.45. For the sequence GGAGCAAUUGAGAAAGAAGTT against Moap1, the z-score was inactive: 0.508. Regarding CGAGUAGUGAUGCUGUUGATT against Dhx33, the z-score is inactive: -1.65. For GCUGGUGGAUCAGAUUGAGTT against Larp6, the z-score was inactive: 0.0914. With GGCGCAACUCCAGAUACACTT against Ccdc150, the z-score is inactive: 2.

Turning to GGUGCUAAAUUAUCCCUAUTT against Tspear, the z-score was inactive: 0.969.

In the case of GCCUUCACGUGUGAAGAAUTT against Dis3, the z-score was inactive: -1.47. Regarding GGACAUUUUCUUUGGAAAATT against Ccnl1, the z-score is inactive: 0.194. In the case of GCCAUGAUUAUUUACCGUGTT against Lrrk2 it was inactive: 0.363; in that of CCUAUUAAGCUCAACAAGCTT against Olfm5, inactive: 0.212. In the case of CCAGUGCUAGCUUCUACGATT against Dusp3, the z-score is inactive: -0.735. The same measure for GGAGAUACGCCGGAGACUATT against Olfr645: inactive: 0.181; for GGAGAGAAAGGAAAGACCGTT against Zdhhc20: inactive: 0.863.

With CCGGUUGAGUUCACAGAAUTT against Atad3aos, the z-score was active: -2.44. For GGACAUUGACACUUCCCUGTT against P2rx5, the z-score was inactive: -1.85. In the case of GGAAGUAGAUUUGAAGUUGTT against Btbd35f1 it was inactive: 0.256; in that of GGAACAUCUACAUUGUGGCTT against Tspan14, inactive: 0.402; in that of CGAAGGACCAGGGAAUCUGTT against Tsg-5, inactive: -0.793. The same measure for GGAGAGAAAAACCAACAGCTT against Foxa1: inactive: 0.182; for GGGAGUCAACUCUAUUUAUTT against AW549877: inactive: 0.41; for GCUUGAUAGACCAAAAGAUTT against Zfp654: inactive: 0.646. As for CCUUCCACACCUAUUCCAATT against Kcna2, the z-score is inactive: 1.89.

Regarding GGAGGUAUUGUACAUCAAUTT against Nol4, the z-score was inactive: 1.18. The same measure for CGCAUGACCUUCCAGAUGCTT against Myoz1: inactive: 0.49; for CGGAGUUGGGAUUUACCAGTT against Pdia5: inactive: -0.594; for GGCUUACGAGAAAAUAGAATT against Phf8: inactive: -0.348.

For GAGCGGGACUUUUGUCAUGTT against Dalrd3, the z-score is inactive: -1.49.

As for CCAGUGUUCCCUACUACGUTT against Tmem176b, the z-score is inactive: 0.607. In the case of CCUGUUUACAAGGAAUUGATT against Itgb1 it was inactive: 0.265; in that of GGACAGAACUGGAAAUUUUTT against Nudcd2, inactive: 0.541. The same measure for GCUAGCAUGCAUCUCUACATT against Asb17: inactive: 1.78. As to GGAGCUCCUGUACGACUAUTT against Kmt5a, the z-score was inactive: -1.66. The same measure for UGCCCAAGACUCAGAAGUCTT against Igf1: inactive: 0.0658; for GCCAGGCUAUAUUUCAUCCTT against Asb15: inactive: 0.296; for CCAGAGAUUCCCACACGUCTT against Havcr1: inactive: -1.37. In the case of GCGGAGAUCCUACAAUGUUTT against Gpatch2 it was inactive: 0.979.
